The other results are listed elsewhere or left out.
Key:
Experiment in all cases: log2 fold change, soluble protein after heating vs DMSO (PISA); higher = thermal stabilisation; K562 cells, 10 uM, 30 min; active = over 0.2 and 3.5 SD of the protein, either way, in both replicates (recomputed)
[1] = compound: CC[C@@H]1C(=O)N(C)c2cnc(Nc3ccc(C(=O)NC4CCN(C)CC4)cc3OC)nc2N1C1CCCC1
In short: (§1)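 For each measurement, 10 μM compound was applied for 30 min to K562 cells at 2×10^6 cells/mL. Aliquots were heated for 3 min across 48°C-58°C, pooled, and extracted in PBS with 0.5% NP-40 at 4°C; the supernatant after 21,000xg for 90 min was soluble protein. This was quantified by TMTpro 16plex LC-MS/MS with channel sums equalised, and thermal stability was reported relative to control samples from duplicates, on a log2 fold-change scale.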

Chains of the proteins cited; added tags and fusions are not shown. Lines headed by an entry give the natural chain unless they say otherwise; changes in a name come on top.
UniProt Q9H633: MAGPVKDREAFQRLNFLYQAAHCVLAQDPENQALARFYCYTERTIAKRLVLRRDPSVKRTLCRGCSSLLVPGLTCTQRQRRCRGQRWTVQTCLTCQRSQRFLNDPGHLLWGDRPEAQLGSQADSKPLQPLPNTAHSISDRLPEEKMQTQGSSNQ
UniProt Q8N5L8: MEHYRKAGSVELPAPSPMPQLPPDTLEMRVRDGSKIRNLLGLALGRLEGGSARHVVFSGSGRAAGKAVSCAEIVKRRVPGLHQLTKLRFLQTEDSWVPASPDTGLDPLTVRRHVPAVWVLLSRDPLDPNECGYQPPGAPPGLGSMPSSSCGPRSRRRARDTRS
UniProt Q96AT9: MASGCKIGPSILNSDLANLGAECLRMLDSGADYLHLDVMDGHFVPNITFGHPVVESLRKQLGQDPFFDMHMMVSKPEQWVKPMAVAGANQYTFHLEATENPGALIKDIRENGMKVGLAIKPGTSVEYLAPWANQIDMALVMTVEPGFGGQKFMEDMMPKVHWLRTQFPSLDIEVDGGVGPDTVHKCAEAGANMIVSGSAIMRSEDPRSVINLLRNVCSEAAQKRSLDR
UniProt Q13464: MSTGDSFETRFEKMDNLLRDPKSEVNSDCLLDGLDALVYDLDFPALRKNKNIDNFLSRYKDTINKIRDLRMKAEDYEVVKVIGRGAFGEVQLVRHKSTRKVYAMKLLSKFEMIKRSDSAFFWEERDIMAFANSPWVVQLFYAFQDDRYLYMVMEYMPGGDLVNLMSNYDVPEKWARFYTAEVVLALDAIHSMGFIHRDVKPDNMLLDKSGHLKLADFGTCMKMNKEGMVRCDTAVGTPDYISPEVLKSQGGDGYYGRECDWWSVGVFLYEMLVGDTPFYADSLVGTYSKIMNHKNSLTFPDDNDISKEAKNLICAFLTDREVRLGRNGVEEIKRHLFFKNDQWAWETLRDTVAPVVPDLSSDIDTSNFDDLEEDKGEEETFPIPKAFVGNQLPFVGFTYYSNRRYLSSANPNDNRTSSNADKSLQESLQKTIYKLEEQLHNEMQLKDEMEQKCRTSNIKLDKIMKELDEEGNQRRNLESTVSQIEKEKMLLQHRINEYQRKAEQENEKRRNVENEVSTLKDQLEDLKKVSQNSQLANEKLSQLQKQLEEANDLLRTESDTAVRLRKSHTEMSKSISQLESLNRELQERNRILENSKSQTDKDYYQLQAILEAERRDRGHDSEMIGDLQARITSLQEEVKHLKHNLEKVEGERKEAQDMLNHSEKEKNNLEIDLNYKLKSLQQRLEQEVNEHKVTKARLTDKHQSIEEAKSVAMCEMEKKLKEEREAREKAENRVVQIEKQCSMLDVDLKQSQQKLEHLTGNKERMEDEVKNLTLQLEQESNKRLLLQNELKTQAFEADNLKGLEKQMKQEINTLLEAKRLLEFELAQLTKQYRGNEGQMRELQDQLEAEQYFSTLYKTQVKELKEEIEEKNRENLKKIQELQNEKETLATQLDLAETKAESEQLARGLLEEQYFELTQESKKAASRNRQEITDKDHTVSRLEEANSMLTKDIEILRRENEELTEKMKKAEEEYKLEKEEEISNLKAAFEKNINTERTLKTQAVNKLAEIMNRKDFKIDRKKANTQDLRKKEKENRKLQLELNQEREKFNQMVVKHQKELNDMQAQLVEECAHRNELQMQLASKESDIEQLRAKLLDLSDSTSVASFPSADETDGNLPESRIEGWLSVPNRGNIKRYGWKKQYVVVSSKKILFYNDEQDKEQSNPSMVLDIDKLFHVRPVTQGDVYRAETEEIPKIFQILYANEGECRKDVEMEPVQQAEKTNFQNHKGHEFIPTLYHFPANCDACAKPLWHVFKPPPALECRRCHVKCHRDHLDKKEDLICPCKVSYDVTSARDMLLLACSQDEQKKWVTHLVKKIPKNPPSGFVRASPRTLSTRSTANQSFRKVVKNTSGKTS
UniProt Q01974, whole entry, looked up: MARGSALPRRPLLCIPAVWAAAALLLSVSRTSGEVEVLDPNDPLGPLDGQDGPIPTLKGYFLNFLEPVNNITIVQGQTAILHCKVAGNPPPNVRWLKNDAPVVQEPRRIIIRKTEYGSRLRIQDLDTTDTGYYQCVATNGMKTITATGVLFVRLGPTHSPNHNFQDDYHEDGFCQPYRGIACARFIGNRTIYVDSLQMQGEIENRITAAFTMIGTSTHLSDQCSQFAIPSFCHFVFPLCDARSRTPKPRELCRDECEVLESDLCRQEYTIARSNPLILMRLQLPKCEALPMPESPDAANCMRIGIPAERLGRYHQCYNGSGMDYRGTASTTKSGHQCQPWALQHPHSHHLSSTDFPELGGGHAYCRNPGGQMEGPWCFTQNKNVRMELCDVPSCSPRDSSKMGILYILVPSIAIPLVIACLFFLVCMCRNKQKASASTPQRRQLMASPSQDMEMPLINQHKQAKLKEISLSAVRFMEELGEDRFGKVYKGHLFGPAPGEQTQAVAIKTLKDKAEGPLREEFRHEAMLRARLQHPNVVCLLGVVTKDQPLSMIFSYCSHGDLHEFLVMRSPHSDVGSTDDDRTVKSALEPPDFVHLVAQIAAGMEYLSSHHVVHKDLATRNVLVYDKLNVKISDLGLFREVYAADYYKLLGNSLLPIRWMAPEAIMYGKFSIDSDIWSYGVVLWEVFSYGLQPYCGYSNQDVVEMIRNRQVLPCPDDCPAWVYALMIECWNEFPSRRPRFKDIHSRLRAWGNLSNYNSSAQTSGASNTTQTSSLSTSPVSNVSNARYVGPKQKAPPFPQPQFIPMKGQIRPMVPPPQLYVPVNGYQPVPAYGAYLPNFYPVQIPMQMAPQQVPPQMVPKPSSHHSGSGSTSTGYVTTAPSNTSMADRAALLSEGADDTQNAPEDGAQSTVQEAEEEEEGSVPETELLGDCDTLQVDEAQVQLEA
UniProt Q15418, whole entry, looked up: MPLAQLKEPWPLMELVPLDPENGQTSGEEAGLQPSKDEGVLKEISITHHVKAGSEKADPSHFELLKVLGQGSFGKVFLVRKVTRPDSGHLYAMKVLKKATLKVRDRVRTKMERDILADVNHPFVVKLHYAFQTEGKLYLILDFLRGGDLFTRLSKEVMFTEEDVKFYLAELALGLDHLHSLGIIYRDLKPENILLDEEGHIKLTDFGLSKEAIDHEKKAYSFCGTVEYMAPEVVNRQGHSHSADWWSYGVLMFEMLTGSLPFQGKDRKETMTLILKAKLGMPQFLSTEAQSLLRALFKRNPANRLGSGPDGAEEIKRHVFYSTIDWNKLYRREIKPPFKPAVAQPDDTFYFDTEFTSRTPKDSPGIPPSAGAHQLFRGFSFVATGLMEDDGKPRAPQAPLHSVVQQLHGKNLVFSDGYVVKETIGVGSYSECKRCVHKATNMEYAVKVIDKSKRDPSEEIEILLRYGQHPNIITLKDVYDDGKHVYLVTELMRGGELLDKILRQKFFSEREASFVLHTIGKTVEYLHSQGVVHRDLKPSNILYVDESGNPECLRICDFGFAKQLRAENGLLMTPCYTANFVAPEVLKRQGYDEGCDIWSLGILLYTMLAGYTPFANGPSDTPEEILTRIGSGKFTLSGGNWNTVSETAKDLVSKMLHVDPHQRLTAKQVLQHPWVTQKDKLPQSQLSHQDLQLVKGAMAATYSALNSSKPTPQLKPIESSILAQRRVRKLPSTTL
UniProt Q99942: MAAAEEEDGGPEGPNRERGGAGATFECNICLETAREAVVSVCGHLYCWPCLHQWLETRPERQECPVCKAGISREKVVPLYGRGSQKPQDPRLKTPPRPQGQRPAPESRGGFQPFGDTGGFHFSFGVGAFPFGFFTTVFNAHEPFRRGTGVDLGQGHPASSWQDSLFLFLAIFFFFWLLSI
UniProt Q8TA86: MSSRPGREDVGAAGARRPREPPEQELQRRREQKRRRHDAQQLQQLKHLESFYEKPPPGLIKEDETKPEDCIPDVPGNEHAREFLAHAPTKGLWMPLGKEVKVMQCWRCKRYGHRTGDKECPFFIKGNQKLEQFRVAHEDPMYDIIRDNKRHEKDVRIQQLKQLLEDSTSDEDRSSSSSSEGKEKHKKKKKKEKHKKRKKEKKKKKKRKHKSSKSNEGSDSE

[2] = compound: CC[C@@H]1C(=O)N(C)c2cnc(Nc3ccc(C(=O)N[C@H]4CC[C@H](N5CCN(CC6CC6)CC5)CC4)cc3OC)nc2N1C(C)C [volasertib]
In short: as §1

[3] = compound: CC[C@H](C)N1C=C(C2=C(C=C(C=C21)C3=CN=C(C=C3)N4CCNCC4)C(=O)NCC5=C(C=C(NC5=O)C)C)C
In short: as §1

[4] = compound: CC[C@H](C)[C@@H](C(=O)N[C@@H]([C@@H](C)O)C(=O)N[C@@H](CC(C)C)C(=O)[C@]1(CO1)C)NC(=O)[C@H]([C@@H](C)CC)N(C)C(=O)C [epoxomicin]
In short: as §1

[5] = compound: CCn1c(C(=O)N(C2CC2)C2CC2)cc2c3c(ncn3C)c(Nc3cc(C)n(C)n3)nc21
In short: as §1

[6] = compound: CCn1cc(-c2ccnc3[nH]c(-c4cccc(CN(C)C)c4)cc23)c(-c2ccc(NC(=O)N(C)C)cc2)n1
In short: as §1

[7] = compound: CN(C)CC(=O)Nc1ccc2[nH]c(=O)c3ccccc3c2c1
In short: as §1

[8] = compound: CN(CCOC1=CC=C(C=C1)C[C@H]2C(=O)NC(=O)S2)C3=CC=CC=N3 (racemic) [rosiglitazone]
In short: as §1

[9] = compound: CN1C2=C(C3=C1C(=O)N(N=C3)CC4=CC(=CC=C4)N)SC(=C2)S(=O)C
In short: as §1

[10] = compound: CN1CCC(CNc2ccc3ncc(-c4cccc(OC(F)(F)F)c4)n3n2)CC1
In short: as §1

Target	log2 fold change [1]	log2 fold change [2]	log2 fold change [3]	log2 fold change [4]	log2 fold change [5]	log2 fold change [6]	log2 fold change [7]	log2 fold change [8]	log2 fold change [9]	log2 fold change [10]
RPS26 (UniProt P62854)	inactive: 0.302	inactive: 0.506	inactive: -0.015	inactive: -0.294	inactive: 0.027	inactive: 0.231	inactive: -0.21	inactive: -0.193	inactive: 0.293	inactive: 0.195
RPP21 isoform 4 (UniProt Q9H633)	inactive: 0.096	inactive: -0.015	inactive: 0.08	inactive: 0.004	inactive: 0.104	inactive: -0.345	inactive: -0.009	inactive: 0.015	inactive: 0.011	inactive: 0.216
RPS27L (UniProt Q71UM5)	inactive: 0.061	inactive: 0.139	inactive: 0.067	inactive: 0.024	inactive: 0.031	inactive: -0.083	inactive: -0.035	inactive: -0.029	inactive: 0.043	inactive: -0.009
RPL21 (UniProt P46778)	inactive: 0.311	inactive: 0.788	inactive: -0.002	inactive: -0.732	inactive: 0.032	inactive: 0.363	inactive: -0.305	inactive: -0.262	inactive: 0.493	inactive: 0.4
RPL12 (UniProt P30050)	inactive: 0.267	inactive: 0.696	inactive: -0.061	inactive: -0.627	inactive: 0.036	inactive: 0.3	inactive: -0.205	inactive: -0.343	inactive: 0.517	inactive: 0.444
RPS24 isoform 4 (UniProt P62847)	inactive: 0.202	inactive: 0.421	inactive: 0.013	inactive: -0.201	inactive: -0.004	inactive: 0.165	inactive: -0.1	inactive: -0.132	inactive: 0.226	inactive: 0.158
RPP25L (UniProt Q8N5L8)	inactive: 0.144	inactive: 0.115	inactive: -0.042	inactive: -0.04		inactive: 0.059	inactive: -0.074		inactive: 0.061	inactive: 0.058
RPE (UniProt Q96AT9)	inactive: 0.04	inactive: 0.022	inactive: 0.115	inactive: 0.001	inactive: -0.062		inactive: -0.013	inactive: -0.077	inactive: 0.02	
ROCK1 (UniProt Q13464)	inactive: -0.005	inactive: -0.083	inactive: 0.005	inactive: -0.011		inactive: -0.05	inactive: -0.011		inactive: 0.031	inactive: 0.096
RPL31 (UniProt P62899)	inactive: 0.212	inactive: 0.457	inactive: 0.01	inactive: -0.238		inactive: 0.216	inactive: -0.108		inactive: 0.251	inactive: 0.259
ROR2 (UniProt Q01974)	inactive: -0.107	inactive: -0.123	inactive: 0.129	inactive: 0.035		inactive: -0.015	inactive: -0.01		inactive: -0.069	inactive: -0.089
RPS6KA1 isoform 2 (UniProt Q15418)	inactive: -0.223	inactive: -0.212	inactive: 0.053	inactive: 0.071		inactive: -0.146	inactive: 0.026		inactive: -0.032	active: -0.438
RNF5 (UniProt Q99942)	inactive: -0.198	inactive: -0.062	inactive: 0.006	inactive: 0.061	inactive: -0.039	inactive: 0.073	inactive: 0.007	inactive: 0		inactive: -0.29
RP9 (UniProt Q8TA86)	inactive: 0.221	inactive: 0.259	inactive: -0.003	inactive: -0.122	inactive: 0.186	inactive: 0.165		inactive: -0.076	inactive: 0.355	inactive: 0.074
RPS19 (UniProt P39019)	inactive: 0.147	inactive: 0.319	inactive: 0.008	inactive: -0.115		inactive: 0.091	inactive: -0.073		inactive: 0.147	inactive: 0.121

Look-ups from the entries so far.
In log2 fold change [6], RPL31 (UniProt P62899) has the entry inactive: 0.216
In log2 fold change [9], RPS26 (UniProt P62854) has the entry inactive: 0.293

Source: the supplement of paper PMC10849652
